Data from paper PMC11610137, “TRIM4 enhances small-molecule-induced neddylated-degradation of CORO1A for triple negative breast cancer therapy” (Theranostics, 2024).
These are yes or no findings as the source states them, for the method shown. Binding seen in cells or lysates may run through a third protein. Some entries that bind do so weakly or less than the wild type.

Chains of the proteins cited; added tags and fusions are not shown.
UniProt P31146: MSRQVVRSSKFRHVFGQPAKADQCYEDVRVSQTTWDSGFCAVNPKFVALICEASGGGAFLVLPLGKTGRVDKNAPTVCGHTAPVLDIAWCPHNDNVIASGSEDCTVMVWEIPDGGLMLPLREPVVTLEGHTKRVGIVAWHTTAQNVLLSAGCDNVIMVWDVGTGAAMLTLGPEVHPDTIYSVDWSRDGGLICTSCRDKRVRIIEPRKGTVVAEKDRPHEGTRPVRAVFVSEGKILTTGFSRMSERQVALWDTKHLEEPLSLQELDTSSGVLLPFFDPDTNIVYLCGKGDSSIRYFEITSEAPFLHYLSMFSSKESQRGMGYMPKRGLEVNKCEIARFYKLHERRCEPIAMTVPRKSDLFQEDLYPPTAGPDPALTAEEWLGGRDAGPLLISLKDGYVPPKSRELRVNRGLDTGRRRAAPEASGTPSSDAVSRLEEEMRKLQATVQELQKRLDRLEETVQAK

Target: Coronin 1A (CORO1A) (Homo sapiens, UniProt P31146)
Assay: co-IP; HEK 293T cells transfected with CORO1A (and TRIM4) plasmid DNA, with or without AB (0.2 uM, 24 h); IP lysis buffer, non-denaturing; anti-CORO1A overnight at 4°C, Protein A beads, Western blot

binding: binds
B1: TRIM4 (protein, UniProt Q9C037 1-500)
chain: MEAEDIQEELTCPICLDYFQDPVSIECGHNFCRGCLHRNWAPGGGPFPCPECRHPSAPAALRPNWALARLTEKTQRRRLGPVPPGLCGRHWEPLRLFCEDDQRPVCLVCRESQEHQTHAMAPIDEAFESYRTGNFDIHVDEWKRRLIRLLLYHFKQEEKLLKSQRNLVAKMKKVMHLQDVEVKNATQWKDKIKSQRMRISTEFSKLHNFLVEEEDLFLQRLNKEEEETKKKLNENTLKLNQTIASLKKLILEVGEKSQAPTLELLQNPKEVLTRSEIQDVNYSLEAVKVKTVCQIPLMKEMLKRFQVAVNLAEDTAHPKLVFSQEGRYVKNTASASSWPVFSSAWNYFAGWRNPQKTAFVERFQHLPCVLGKNVFTSGKHYWEVESRDSLEVAVGVCREDVMGITDRSKMSPDVGIWAIYWSAAGYWPLIGFPGTPTQQEPALHRVGVYLDRGTGNVSFYSAVDGVHLHTFSCSSVSRLRPFFWLSPLASLVIPPVTDRK
